According to patent US20230372551A1 (priority 2020, published 2023):

Experiment: general procedure: Fmoc solid-phase peptide synthesis
Conditions: conjugation step, analytical C18 RP-HPLC

With “Ac-(D-Ala)-(D-Lys[X^4])-(D-Asp)-(D-Asp)-(D-Gln)-(D-Asn)-(D-Pro)-(D-Trp)-(D-Arg)-(D-Ala)-(D-Tyr)-(D-Leu)-(D-Asp)-(D-Leu)-(D-Leu)-(D-Phe)-(D-Pro)-(D-Thr)-(D-Asp)-(D-Thr)-(D-Leu)-(D-Leu)- (D-Leu)-(D-Asp)-(D-Leu)-(D-Leu)-(D-Trp)-(D-Ala)” the “final HPLC purity” value was over 95%.
